Laboratory results reported in US8802675B2, “Neuroprotective multifunctional compounds and pharmaceutical compositions comprising them” (priority 2009, dated 2014).
For some of these results: For at least one compound, name, drawing or mass did not settle the structure. Some entries share one result that the patent states for a list of compounds.

Tests used:
Assay type in all cases: biochemical
[1] = target: T1, rat brain cholinesterase (total ChE) (Rattus norvegicus, UniProt P37136); assay: Kinetics of irreversible cholinesterase inhibition (Kitz-Wilson); settings: from k+2
T1 construct: rows headed: Ki (dissociation constant for EI); other: rat brain total ChE; mean of 3-4 experiments; k+2 (carbamylation rate constant); other: from ki; rate of carba
T1 sequence (P37136 32-614): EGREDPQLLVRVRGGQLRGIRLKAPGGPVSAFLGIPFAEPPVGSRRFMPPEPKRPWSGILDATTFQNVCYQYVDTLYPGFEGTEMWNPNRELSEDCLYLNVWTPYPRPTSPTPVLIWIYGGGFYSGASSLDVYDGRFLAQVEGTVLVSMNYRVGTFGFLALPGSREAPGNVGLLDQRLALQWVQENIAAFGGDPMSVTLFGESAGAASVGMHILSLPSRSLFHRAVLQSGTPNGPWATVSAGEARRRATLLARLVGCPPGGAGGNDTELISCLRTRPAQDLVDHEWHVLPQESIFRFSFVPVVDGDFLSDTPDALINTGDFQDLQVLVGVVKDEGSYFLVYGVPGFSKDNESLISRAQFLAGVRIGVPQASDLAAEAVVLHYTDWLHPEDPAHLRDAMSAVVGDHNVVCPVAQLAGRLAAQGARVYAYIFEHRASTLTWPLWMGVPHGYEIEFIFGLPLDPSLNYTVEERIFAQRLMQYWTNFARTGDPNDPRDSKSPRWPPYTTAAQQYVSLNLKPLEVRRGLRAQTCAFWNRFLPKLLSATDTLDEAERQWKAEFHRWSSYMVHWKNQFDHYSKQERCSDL
Protocol: To determine kinetic constants of irreversible inhibition, cholinesterase from rat brain homogenates was incubated with the multifunctional compounds of the invention for designed time intervals in phosphate buffer pH 7.4.
The residual cholinesterase activity was immediately measured with the Ellman's colorimetric method after addition of 5,5′-dithiobis(2-nitrobenzoic) acid and 1 mM acetylthiocholine iodide. The inhibition kinetics were assessed according to Kitz-Wilson equation: […]
According to equation (2), the logarithm of the ratio of the residual cholinesterase activity (E) and the initial cholinesterase activity (E0) is plotted against the time of incubation. The slopes of the lines representing kapp were determined by linear regression.
The slopes of the lines represent the pseudo-first-order inhibition rate constant (kapp) determined from linear regression analysis. […]
From these lines, the values of kapp were calculated based on Equation (2) of the Kitz-Wilson equations (see Material and Methods). […]

rat brain MAO-A = target: T2, rat brain MAO-A (Rattus norvegicus, UniProt P21396); settings: rat brain homogenate in vitro; mean SEM, n=3 in triplicates
T2 construct: from tissue; host or cells: rat brain homogenate
T2 sequence (P21396 1-526): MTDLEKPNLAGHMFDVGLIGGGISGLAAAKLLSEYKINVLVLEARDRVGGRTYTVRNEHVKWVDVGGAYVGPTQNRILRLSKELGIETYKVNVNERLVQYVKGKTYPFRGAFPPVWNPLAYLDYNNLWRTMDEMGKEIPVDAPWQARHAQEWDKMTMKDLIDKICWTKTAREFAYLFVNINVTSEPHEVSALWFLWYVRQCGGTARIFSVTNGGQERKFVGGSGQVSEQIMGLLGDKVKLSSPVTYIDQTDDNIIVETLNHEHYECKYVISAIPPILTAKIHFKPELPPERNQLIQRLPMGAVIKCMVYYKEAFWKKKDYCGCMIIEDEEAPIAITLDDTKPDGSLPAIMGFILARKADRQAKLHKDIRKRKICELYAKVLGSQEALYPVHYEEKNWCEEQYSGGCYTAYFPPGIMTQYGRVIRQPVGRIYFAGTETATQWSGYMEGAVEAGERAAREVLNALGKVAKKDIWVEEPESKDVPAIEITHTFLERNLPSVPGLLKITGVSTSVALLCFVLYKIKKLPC
Protocol: (§1) Rats were decapitated and the brains were quickly taken into a pre-weighted ice-cold sucrose buffer (10 mM Tris-HCl buffer, pH 7.4, containing 0.32 M sucrose), and their weights were measured. The brains were homogenized at 0-4° C. in 0.32 M sucrose (one part tissue to 20 parts sucrose) in a Teflon glass homogenizer. The resultant homogenates were used to determine MAO activity. Protein concentration was determined with Bradford reagent at 595 nm, using bovine serum albumin as a standard.
(§2) The activity of MAO-A and MAO-B were determined by the adapted method of Tipton & Youdim (Tipton et al. 1983). Briefly, the multifunctional compound tested was added to a suitable dilution of the enzyme preparation (70 μg MAO-B and 150 μg MAO-A) in 0.05 M phosphate buffer (pH 7.4). The mixture was incubated together with 0.05 μM 1-deprenyl, a specific inhibitor of MAO-B (for determination of MAO-A activity in the presence of the test compound) or 0.05 μM clorgyline a specific inhibitor of MAO-A (for determination of MAO-B activity). […] The radioactivity contained in the organic phase was determined by liquid-scintillation counting in cpm units.
(§3) MAO-A and MAO-B activities were determined in rat brain homogenate in vitro following incubation with varying concentrations of the test compounds. […]

rat brain MAO-B = target: T3, rat brain MAO-B (Rattus norvegicus, UniProt P19643); settings: rat brain homogenate in vitro; mean SEM, n=3 in triplicates
T3 construct: from tissue; host or cells: rat brain homogenate
T3 sequence (P19643 1-520): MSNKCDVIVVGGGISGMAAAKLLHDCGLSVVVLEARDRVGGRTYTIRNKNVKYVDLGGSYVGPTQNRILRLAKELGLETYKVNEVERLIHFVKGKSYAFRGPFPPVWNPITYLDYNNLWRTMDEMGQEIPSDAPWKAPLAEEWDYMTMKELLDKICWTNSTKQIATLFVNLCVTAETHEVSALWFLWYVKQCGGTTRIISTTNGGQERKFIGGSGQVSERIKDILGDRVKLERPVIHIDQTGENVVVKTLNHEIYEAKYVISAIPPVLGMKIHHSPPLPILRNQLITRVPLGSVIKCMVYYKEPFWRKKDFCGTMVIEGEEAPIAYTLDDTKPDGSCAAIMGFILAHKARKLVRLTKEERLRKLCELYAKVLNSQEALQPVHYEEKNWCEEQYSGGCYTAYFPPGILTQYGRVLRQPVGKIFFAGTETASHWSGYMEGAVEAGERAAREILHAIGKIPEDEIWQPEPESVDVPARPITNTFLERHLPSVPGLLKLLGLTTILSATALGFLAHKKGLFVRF
Protocol: as §1, §2, §3

[2] = target: T4, total cholinesterase (ChE) (Rattus norvegicus, UniProt P37136); assay: Total cholinesterase inhibition in rat brain homogenates (Ellman); settings: 50 μM test compound
T4 sequence (P37136 32-614): T1 sequence (P37136 32-614)
Protocol: Cholinesterase activity was determined in rat brain homogenate following incubation with varying concentrations of the multifunctional pro-chelators of the invention (also referred to herein as “carbamates”).
Ellman's colorimetric method was adapted for determination of total cholinesterase (ChE) and butyrylcholinesterase (BuChE) activities in rat brain homogenates. Brain tissue from adult Wistar rats was homogenized at 2% w/v (or 10% w/v, for BuChE) in 0.1 M sodium phosphate buffer, pH 7.4, with added NaCl 58.5 g/l and Triton X-100 0.05% v/v. […] The reaction was run at 37° C. in a final volume of […] in 96-well microplates and was followed at 412 nm for 5 min with a plate reader. In every experiment, cholinesterase-independent (nonspecific) substrate hydrolysis was determined by including one experimental group treated with tacrine 30 μM. […] Reaction velocities were determined in three or four replicates per condition; these were averaged and expressed as percent activity relative to control (solvent), after subtracting the rate of nonspecific hydrolysis.
The results are the mean SEM, n=3 in triplicates. ND—not determined.

SMILES: C#CCN(C)Cc1ccc(OC(=O)N(C)CC)c2ncccc12 [Compound 3, 5-((methyl(propargyl)amino)methyl)quinolin-8-yl ethyl(methyl)carbamate]
- rate of carbamylation relative to 5, 13 and 23 [1]: 2-3 fold

SMILES: C#CCN1CCN(Cc2ccc(O)c3ncccc23)CC1 [HLA20, reference compound]
- IC50 MAO-A (rat brain MAO-A): 299.8 µM
- IC50 MAO-B (rat brain MAO-B): 64.2 µM
- percent inhibition Total ChE [2]: 40% inhibition (50 μM)
